Laboratory results as given in paper PMC12618502.
These are yes or no findings as the source states them, for the method shown. In cells and extracts the contact can be indirect. Some results given as binding are weak or reduced against the parent protein; the word gives no strength. Tags and fused reporters may be left off the sequences shown.

T1: AtPSKR1-GFP (PHYTOSULFOKINE RECEPTOR 1), stably expressed in Arabidopsis (Arabidopsis) (UniProt Q9ZVR7)
T1 sequence: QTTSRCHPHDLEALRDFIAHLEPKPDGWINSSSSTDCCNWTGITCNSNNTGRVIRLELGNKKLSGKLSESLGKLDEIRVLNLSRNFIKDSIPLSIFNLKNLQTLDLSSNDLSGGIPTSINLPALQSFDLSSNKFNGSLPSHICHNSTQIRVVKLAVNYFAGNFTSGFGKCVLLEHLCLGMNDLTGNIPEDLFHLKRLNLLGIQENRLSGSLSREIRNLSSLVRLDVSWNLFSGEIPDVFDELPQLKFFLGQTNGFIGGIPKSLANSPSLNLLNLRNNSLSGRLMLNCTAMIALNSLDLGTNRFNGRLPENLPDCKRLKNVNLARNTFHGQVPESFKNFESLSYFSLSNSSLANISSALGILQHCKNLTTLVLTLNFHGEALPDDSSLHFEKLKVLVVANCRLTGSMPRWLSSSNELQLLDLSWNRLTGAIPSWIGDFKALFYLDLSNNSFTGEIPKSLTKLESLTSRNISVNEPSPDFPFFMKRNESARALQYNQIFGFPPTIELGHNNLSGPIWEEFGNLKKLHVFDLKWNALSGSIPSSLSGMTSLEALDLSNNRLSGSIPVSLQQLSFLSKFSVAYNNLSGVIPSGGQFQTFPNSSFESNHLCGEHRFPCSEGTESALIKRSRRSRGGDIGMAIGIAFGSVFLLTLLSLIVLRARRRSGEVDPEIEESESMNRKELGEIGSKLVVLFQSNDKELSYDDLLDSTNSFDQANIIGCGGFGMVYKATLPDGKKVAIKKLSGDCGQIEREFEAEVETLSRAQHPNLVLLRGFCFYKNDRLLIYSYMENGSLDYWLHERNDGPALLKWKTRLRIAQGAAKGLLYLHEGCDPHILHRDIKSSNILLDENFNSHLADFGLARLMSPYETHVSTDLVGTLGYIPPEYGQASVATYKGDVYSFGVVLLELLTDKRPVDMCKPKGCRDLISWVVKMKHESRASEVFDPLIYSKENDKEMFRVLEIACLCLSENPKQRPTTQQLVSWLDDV

T2: AtPSKR1-GFP, transiently expressed in N. benthamiana (Arabidopsis) (UniProt Q9ZVR7)
T2 sequence: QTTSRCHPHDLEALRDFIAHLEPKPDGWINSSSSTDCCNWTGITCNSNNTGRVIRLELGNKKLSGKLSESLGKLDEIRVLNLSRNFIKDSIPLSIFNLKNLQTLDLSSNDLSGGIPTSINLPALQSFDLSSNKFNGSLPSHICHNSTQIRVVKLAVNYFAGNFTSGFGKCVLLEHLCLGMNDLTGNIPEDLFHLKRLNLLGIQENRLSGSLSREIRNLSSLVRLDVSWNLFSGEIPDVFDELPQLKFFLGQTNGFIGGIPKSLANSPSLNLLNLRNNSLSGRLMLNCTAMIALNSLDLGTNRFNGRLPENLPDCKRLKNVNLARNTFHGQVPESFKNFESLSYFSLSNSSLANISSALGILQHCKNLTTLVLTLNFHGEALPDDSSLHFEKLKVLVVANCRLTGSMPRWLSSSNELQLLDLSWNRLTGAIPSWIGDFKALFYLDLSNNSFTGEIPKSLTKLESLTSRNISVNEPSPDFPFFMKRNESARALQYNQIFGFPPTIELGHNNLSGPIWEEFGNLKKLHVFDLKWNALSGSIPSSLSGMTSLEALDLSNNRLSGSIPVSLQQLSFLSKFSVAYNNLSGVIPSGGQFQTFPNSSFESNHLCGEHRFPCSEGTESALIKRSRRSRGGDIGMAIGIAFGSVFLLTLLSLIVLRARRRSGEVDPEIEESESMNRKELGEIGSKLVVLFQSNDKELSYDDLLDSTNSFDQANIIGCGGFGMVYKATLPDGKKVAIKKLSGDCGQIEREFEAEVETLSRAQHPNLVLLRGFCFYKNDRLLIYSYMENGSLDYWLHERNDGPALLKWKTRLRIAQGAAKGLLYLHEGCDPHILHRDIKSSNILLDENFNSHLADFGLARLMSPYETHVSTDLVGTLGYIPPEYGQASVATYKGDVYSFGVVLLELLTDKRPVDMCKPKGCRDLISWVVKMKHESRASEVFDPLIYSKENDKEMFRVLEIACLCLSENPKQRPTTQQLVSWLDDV


Columns and labels:
[1] = biological target: T1, AtPSKR1-GFP (PHYTOSULFOKINE RECEPTOR 1), stably expressed in Arabidopsis (Arabidopsis); test: co-IP; Arabidopsis plants stably expressing p35S::AtPSKR1-GFP, infiltrated with recombinant SCP8 (1 µM, 5-30 min) or PSK (1 µM, positive control); RIPA buffer; GFP-trap agarose beads; blots with anti-GFP and anti-BAK1
[2] = biological target: T2, AtPSKR1-GFP, transiently expressed in N. benthamiana (Arabidopsis); test: co-IP; N. benthamiana leaves transiently co-expressing p35S::AtPSKR1-GFP and p35S::AtBAK1-myc, treated with SCP8 (Supplementary Fig. 8)

| binding [1] | binding [2] | Binder |
| --- | --- | --- |
| binds | – | AtBAK1, endogenous in Arabidopsis (receptor, UniProt Q94F62 26-615) NAEGDALSALKNSLADPNKVLQSWDATLVTPCTWFHVTCNSDNSVTRVDLGNANLSGQLVMQLGQLPNLQYLELYSNNITGTIPEQLGNLTELVSLDLYLNNLSGPIPSTLGRLKKLRFLRLNNNSLSGEIPRSLTAVLTLQVLDLSNNPLTGDIPVNGSFSLFTPISFANTKLTPLPASPPPPISPTPPSPAGSNRITGAIAGGVAAGAALLFAVPAIALAWWRRKKPQDHFFDVPAEEDPEVHLGQLKRFSLRELQVASDNFSNKNILGRGGFGKVYKGRLADGTLVAVKRLKEERTQGGELQFQTEVEMISMAVHRNLLRLRGFCMTPTERLLVYPYMANGSVASCLRERPESQPPLDWPKRQRIALGSARGLAYLHDHCDPKIIHRDVKAANILLDEEFEAVVGDFGLAKLMDYKDTHVTTAVRGTIGHIAPEYLSTGKSSEKTDVFGYGVMLLELITGQRAFDLARLANDDDVMLLDWVKGLLKEKKLEALVDVDLQGNYKDEEVEQLIQVALLCTQSSPMERPKMSEVVRMLEGDGLAERWEEWQKEEMFRQDFNYPTHHPAVSGWIIGDSTSQIENEYPSGPR |
| – | binds | AtBAK1-myc, transiently expressed in N. benthamiana (receptor, UniProt Q94F62 26-615) NAEGDALSALKNSLADPNKVLQSWDATLVTPCTWFHVTCNSDNSVTRVDLGNANLSGQLVMQLGQLPNLQYLELYSNNITGTIPEQLGNLTELVSLDLYLNNLSGPIPSTLGRLKKLRFLRLNNNSLSGEIPRSLTAVLTLQVLDLSNNPLTGDIPVNGSFSLFTPISFANTKLTPLPASPPPPISPTPPSPAGSNRITGAIAGGVAAGAALLFAVPAIALAWWRRKKPQDHFFDVPAEEDPEVHLGQLKRFSLRELQVASDNFSNKNILGRGGFGKVYKGRLADGTLVAVKRLKEERTQGGELQFQTEVEMISMAVHRNLLRLRGFCMTPTERLLVYPYMANGSVASCLRERPESQPPLDWPKRQRIALGSARGLAYLHDHCDPKIIHRDVKAANILLDEEFEAVVGDFGLAKLMDYKDTHVTTAVRGTIGHIAPEYLSTGKSSEKTDVFGYGVMLLELITGQRAFDLARLANDDDVMLLDWVKGLLKEKKLEALVDVDLQGNYKDEEVEQLIQVALLCTQSSPMERPKMSEVVRMLEGDGLAERWEEWQKEEMFRQDFNYPTHHPAVSGWIIGDSTSQIENEYPSGPR |
